Source: article PMC10599522
For at least one entry, the source does not settle the construct or the ends of the probe. Where a protein sequence is shown, tags need not be part of it.

Target: T1, 6his-GSU1771 (UniProt Q74CA3)
T1 sequence (looked up, limits assumed): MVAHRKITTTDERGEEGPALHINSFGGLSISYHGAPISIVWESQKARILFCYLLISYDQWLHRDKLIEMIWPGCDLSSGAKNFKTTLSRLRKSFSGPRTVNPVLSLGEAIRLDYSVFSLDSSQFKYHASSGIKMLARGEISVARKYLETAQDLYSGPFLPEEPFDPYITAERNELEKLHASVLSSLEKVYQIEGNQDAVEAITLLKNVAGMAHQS
Test: EMSA
Settings: 0.1-1 uM protein, control fragment N7 in same reaction; 40 mM HEPES, 8 mM MgCl2, 50 mM KCl, 1 mM DTT, 0.05% NP-40, 0.1 mg/ml BSA, 20 ul, 30 C 30 min, pH not stated; 100 ng of each fragment; 6% native PAGE in 0.5X TBE; recombinant protein; probe letters rebuilt from the primers and the genome

CGCGCAAAACAATTCAGACGCGAAGCCGGTTACCCTTCGGATGACCGGCTTTTTTGTTGCTAAAGAGGAAAACTCAGGGTTGTCTCCGACAAACCTAAACCAAAATGCAGCCCACAACATGCTGCAACAATTAACTATTTCAAAATGGTAACACCCGTAAAACATTTTGTGTTGACATTCAGATACAAGGTTTGTTAGTTCTATAGTCAGCAATTCACCAAACAAATCAGATACACGACAATACTAAACCATCCGCGAGGATGGGGCGGAAAGCCTAAGGGTCTCCCTGAGACAGCCGGGTCGCCGAAATATCTGAACGATATCAGGCCCCGGCTTTTTTGTGCCCGGGCTGCCGGATCGTTCTGATCCGGTACACTACCACGCGCTCAGG (double strand) [pgcA promoter]
binding result: binds
